# From publication PMC7819943, “Rice protein-binding microarrays: a tool to detect cis-acting elements near promoter regions in rice”
# Sequences of proteins named here, by UniProt entry; tags and fusion partners are left off.
# UniProt Q0JBA9, entry or part of it: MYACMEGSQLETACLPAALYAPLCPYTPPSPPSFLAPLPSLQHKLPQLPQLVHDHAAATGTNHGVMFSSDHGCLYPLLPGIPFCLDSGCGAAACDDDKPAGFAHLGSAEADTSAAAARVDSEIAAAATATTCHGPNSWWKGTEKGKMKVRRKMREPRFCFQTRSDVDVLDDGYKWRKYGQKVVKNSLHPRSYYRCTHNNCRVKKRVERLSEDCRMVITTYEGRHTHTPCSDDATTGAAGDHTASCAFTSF
# Some of the results follow.
# Molecular target: OsWRKY34 (Oryza sativa, UniProt Q0JBA9 1-250)
# Experiment: protein-binding microarray (RPBM); PBS, 2% BSA, 51.3 ng/ul salmon testes DNA, 50 uM zinc acetate, 200 nM TF, 25 C, 1 h; high values mean tight binding
# Conditions: protein: recombinant; tags: N-terminal polyhistidine and DsRed monomer fusion (pET32a); label: CyDye5-dUTP incorporated in the synthesized complementary strand; 3' TTTTT single-stranded linker to array surface; dsDNA, one strand shown
# In short: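 Per-feature fluorescence intensity (arbitrary units), read on an Axon 4000B scanner, is the binding signal. Transcription factors carrying an N-terminal polyhistidine tag and DsRed fusion were expressed in E. coli BL21-CodonPlus and purified on Ni–NTA. A custom Agilent array, made double-stranded by primer extension with Cy5-dUTP and blocked with 2% BSA, was incubated with 200 nM protein in PBS, 2% BSA, salmon testes DNA and 50 µM zinc acetate at 25 °C for 1 h and then washed.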
row,Sequence,binding signal
1,GTTCATCGCATCCGCCCCAGCCCCGCGTCCGTGCCGTGCACGGAGTCACCTAGTGCAG,10100 fluorescence intensity (a.u.)
2,TGGAGAAGGTGGTTATGGTGTGGTTTTCAAAGGAAAGCTACGGAGTCACCTAGTGCAG,8030 fluorescence intensity (a.u.)
3,CATTGGGTTGGGAATGATCTTTGTACTCCCTCTGTCCCATCGGAGTCACCTAGTGCAG,11400 fluorescence intensity (a.u.)
4,CCCGCGCTCCAATTCCGTCCTTCATCCGCTCTTTGTTTTTCGGAGTCACCTAGTGCAG,14200 fluorescence intensity (a.u.)
5,CTGGCTCGCTCTCTCTCTCTCTCTCGTGGTGTGGTGTGGACGGAGTCACCTAGTGCAG,9310 fluorescence intensity (a.u.)
6,ATGACTTAAAACCTTCCGGATCTCATAGCTGCTCCAAATACGGAGTCACCTAGTGCAG,8350 fluorescence intensity (a.u.)
7,CGTCGTCTTCCTGCCGCCGCCTTCACACCGCCGCCGCGACCGGAGTCACCTAGTGCAG,11100 fluorescence intensity (a.u.)
8,TTTGTTGGTTGGTTTGACCCTTCCTAATCCTACCTTTGGTCGGAGTCACCTAGTGCAG,8160 fluorescence intensity (a.u.)
9,ACACCAAAATTTCCGTCCGCATGAGCTGCACCTGCACCAACGGAGTCACCTAGTGCAG,10300 fluorescence intensity (a.u.)
10,GGCCCGGTTCTTTTCTCCTTATGGCACGAACACATTTTTTCGGAGTCACCTAGTGCAG,9840 fluorescence intensity (a.u.)
11,ACTCCCTGATCTTTAGCTAAACCTTTCATTCTCAGGTTATCGGAGTCACCTAGTGCAG,10700 fluorescence intensity (a.u.)
12,AAGCCCACAGAACCACGCGCTCGTTAGCCTCCTCGTTCCGCGGAGTCACCTAGTGCAG,8230 fluorescence intensity (a.u.)
13,GGGGCTTGGAGTGACGTTTGCTACTACTGACGGATTTTCACGGAGTCACCTAGTGCAG,10400 fluorescence intensity (a.u.)
14,AATTCGCCGTCGTCGTCTTCTTCTTCCACCTCGGGAAGTCCGGAGTCACCTAGTGCAG,9600 fluorescence intensity (a.u.)
15,AAAAATGCTTCTCCGGTCACCATCCACCGCCACCGCCACCCGGAGTCACCTAGTGCAG,8320 fluorescence intensity (a.u.)
16,CCCTTTCTTTCATGTTGACCTCGTCACCCAACAACAACAACGGAGTCACCTAGTGCAG,13100 fluorescence intensity (a.u.)
17,TTCTCGAGTTCCGGTCCGCTTTGATTTTATACTTTTGGGGCGGAGTCACCTAGTGCAG,10100 fluorescence intensity (a.u.)
18,ATTTTATTTTTAGAATGAGGGGTTGCCATATTTGCTTGTTCGGAGTCACCTAGTGCAG,8670 fluorescence intensity (a.u.)
19,ACGGTCACATGGCTATACAATTGACGGTATGATTTTTTTTCGGAGTCACCTAGTGCAG,9060 fluorescence intensity (a.u.)
20,TGTCCAGTCTCCGCTCGCTATATCCGCTCCCGCGCGACTCCGGAGTCACCTAGTGCAG,14600 fluorescence intensity (a.u.)
21,CCTGCAGCCGCCGCCGTCAGGTCTCGCCTCCGCCGCACTCCGGAGTCACCTAGTGCAG,8820 fluorescence intensity (a.u.)
22,CTCTTTTTTTTCTCCGTAATGTTTAATTCAATACTATAATCGGAGTCACCTAGTGCAG,8940 fluorescence intensity (a.u.)
23,ATCCGTTGACTTCTCCCTATCTTCTCTCTTTCTTAATTTCCGGAGTCACCTAGTGCAG,14900 fluorescence intensity (a.u.)

# Part of the list above, bar-delimited.
row | Sequence | binding signal
21 | CCTGCAGCCGCCGCCGTCAGGTCTCGCCTCCGCCGCACTCCGGAGTCACCTAGTGCAG | 8820 fluorescence intensity (a.u.)
22 | CTCTTTTTTTTCTCCGTAATGTTTAATTCAATACTATAATCGGAGTCACCTAGTGCAG | 8940 fluorescence intensity (a.u.)
